# The supplement of paper PMC12819154, “High-throughput peptide-centric local stability assay extends protein–ligand identification to membrane proteins, tissues and bacteria” (Nature Structural & Molecular Biology, 2025)
# Amino acid sequences for entries named in this document (tags omitted). A change or cut given only in a name is not applied to a line headed by its entry.
# UniProt Q9UDY4: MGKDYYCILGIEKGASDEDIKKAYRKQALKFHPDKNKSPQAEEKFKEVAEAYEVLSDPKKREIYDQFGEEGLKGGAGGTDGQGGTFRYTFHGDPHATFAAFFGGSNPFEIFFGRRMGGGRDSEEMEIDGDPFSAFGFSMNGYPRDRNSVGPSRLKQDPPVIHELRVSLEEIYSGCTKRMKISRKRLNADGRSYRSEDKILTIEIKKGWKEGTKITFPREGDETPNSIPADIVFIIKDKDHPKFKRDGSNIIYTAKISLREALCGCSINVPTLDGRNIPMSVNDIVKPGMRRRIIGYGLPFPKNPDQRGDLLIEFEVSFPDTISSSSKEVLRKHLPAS
# UniProt Q9P265: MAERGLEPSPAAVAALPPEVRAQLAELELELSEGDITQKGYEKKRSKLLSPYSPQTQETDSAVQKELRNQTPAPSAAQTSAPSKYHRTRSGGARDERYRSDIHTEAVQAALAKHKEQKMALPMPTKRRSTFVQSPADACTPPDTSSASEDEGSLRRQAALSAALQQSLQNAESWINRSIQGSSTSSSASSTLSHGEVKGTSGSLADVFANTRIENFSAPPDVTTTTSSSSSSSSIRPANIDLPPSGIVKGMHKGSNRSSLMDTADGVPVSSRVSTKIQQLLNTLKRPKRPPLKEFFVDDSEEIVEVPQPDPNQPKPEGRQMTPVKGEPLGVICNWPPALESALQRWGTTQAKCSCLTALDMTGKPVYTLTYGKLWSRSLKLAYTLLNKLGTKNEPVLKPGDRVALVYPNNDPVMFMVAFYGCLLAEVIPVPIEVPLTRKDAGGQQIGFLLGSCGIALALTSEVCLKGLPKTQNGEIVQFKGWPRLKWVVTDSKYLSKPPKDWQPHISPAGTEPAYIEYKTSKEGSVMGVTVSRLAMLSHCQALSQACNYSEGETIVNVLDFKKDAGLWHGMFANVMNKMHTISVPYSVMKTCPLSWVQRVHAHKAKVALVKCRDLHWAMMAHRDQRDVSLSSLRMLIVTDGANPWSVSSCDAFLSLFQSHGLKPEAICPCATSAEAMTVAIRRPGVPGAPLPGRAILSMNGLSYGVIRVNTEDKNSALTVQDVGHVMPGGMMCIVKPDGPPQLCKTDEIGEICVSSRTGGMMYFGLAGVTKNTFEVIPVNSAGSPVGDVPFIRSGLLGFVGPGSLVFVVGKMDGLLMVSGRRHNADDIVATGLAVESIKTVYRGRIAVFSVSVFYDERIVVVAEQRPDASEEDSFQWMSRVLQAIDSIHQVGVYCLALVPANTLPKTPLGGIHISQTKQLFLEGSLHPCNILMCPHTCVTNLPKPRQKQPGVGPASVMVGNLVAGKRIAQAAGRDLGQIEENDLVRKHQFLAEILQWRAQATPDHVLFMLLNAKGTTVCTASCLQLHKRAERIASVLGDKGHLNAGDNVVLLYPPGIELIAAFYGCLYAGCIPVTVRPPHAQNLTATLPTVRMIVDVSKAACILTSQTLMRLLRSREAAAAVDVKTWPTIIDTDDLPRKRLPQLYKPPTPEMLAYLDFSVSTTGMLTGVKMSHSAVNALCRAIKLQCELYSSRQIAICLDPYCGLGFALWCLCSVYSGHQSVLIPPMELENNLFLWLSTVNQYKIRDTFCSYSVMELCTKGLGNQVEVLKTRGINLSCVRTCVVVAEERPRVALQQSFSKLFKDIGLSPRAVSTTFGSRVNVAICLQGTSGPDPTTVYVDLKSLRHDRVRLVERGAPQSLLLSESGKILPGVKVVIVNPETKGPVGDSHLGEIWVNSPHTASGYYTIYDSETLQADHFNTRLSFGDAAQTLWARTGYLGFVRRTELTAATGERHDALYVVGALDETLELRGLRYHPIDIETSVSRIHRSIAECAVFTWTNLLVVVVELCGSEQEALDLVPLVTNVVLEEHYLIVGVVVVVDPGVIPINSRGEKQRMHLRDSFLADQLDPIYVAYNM
# UniProt Q9NZC9: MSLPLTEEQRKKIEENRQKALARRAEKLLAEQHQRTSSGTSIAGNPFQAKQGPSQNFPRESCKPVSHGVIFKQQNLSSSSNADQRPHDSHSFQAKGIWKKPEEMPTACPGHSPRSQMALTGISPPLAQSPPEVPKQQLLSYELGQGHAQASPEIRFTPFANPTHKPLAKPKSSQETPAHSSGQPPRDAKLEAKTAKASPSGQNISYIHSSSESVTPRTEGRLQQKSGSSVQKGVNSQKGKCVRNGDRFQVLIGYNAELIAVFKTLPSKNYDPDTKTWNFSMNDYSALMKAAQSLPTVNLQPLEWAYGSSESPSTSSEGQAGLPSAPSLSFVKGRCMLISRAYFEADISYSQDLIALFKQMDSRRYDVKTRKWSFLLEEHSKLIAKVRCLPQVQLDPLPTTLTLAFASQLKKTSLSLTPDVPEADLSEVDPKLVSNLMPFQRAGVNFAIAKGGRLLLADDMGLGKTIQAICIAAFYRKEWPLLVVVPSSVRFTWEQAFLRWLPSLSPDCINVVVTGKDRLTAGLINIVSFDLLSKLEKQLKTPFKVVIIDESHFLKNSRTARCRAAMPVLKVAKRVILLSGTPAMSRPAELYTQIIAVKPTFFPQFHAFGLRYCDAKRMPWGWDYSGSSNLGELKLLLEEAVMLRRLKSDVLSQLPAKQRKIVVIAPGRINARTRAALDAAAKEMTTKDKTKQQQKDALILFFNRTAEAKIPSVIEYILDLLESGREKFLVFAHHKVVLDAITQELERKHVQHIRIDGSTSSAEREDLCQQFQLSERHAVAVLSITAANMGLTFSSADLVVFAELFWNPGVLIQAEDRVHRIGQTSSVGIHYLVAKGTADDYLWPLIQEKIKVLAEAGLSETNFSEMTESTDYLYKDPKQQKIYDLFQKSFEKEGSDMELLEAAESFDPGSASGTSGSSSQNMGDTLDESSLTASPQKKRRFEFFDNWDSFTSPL
# UniProt Q9UJL9: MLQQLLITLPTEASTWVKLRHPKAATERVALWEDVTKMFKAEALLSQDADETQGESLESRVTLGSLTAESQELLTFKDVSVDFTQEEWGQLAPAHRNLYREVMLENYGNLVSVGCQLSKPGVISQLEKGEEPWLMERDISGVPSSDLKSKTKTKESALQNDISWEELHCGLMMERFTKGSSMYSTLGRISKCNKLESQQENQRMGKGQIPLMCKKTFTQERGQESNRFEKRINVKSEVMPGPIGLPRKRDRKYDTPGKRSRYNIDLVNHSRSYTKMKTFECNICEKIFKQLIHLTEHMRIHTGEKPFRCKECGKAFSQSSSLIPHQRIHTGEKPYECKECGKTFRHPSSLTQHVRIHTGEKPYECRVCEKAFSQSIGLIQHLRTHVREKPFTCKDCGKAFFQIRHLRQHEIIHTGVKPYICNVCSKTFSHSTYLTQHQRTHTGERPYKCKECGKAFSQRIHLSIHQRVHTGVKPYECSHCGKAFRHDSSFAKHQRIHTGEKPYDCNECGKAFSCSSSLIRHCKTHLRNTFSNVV
# UniProt Q9UHD1: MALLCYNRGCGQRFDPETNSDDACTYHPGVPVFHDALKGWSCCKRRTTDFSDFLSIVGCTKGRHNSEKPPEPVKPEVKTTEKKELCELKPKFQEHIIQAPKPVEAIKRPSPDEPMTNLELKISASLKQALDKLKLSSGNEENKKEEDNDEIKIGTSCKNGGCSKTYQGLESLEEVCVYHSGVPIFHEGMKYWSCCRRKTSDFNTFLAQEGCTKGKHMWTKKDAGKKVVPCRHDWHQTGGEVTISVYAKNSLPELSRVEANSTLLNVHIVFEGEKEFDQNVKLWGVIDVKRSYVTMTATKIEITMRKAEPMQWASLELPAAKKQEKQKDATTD
# UniProt Q9UHC7: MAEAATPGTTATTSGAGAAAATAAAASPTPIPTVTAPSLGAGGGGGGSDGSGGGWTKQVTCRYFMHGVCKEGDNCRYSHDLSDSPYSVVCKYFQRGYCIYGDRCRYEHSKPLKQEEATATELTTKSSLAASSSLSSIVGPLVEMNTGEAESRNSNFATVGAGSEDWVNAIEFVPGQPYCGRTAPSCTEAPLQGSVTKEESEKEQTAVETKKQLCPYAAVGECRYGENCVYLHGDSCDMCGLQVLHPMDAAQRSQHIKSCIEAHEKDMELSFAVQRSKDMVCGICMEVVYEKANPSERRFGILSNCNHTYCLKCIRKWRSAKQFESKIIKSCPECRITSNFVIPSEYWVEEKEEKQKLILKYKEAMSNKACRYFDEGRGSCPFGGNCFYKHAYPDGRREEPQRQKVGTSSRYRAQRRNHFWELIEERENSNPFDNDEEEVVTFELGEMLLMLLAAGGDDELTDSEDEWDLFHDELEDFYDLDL
# UniProt Q9UGP4: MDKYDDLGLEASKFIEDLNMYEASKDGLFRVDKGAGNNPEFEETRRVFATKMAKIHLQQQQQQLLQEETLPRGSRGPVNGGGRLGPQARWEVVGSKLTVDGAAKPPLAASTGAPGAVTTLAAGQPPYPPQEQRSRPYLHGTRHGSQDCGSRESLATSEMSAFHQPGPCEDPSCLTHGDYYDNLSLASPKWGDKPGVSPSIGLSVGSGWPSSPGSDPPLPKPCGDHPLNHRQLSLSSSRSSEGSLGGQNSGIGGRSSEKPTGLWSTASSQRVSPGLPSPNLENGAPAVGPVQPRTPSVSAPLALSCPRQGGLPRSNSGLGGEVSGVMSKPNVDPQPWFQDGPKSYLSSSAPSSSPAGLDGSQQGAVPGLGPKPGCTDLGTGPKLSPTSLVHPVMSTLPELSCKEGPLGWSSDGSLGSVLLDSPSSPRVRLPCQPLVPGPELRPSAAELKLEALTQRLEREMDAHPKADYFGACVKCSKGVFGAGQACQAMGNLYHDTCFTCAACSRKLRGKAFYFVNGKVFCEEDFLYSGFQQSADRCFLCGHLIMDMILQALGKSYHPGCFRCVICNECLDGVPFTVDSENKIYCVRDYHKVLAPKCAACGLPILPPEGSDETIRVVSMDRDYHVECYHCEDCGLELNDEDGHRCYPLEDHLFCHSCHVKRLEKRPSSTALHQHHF
# UniProt Q9P287, whole entry: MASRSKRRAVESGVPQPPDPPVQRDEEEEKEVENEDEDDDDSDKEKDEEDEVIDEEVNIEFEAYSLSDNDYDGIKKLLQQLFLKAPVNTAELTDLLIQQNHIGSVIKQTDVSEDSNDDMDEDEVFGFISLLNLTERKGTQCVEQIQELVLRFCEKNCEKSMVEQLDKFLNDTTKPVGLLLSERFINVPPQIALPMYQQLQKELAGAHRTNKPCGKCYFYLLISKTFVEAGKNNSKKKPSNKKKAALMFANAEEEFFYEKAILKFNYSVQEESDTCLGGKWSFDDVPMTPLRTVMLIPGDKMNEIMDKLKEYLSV
# UniProt Q9UJM8: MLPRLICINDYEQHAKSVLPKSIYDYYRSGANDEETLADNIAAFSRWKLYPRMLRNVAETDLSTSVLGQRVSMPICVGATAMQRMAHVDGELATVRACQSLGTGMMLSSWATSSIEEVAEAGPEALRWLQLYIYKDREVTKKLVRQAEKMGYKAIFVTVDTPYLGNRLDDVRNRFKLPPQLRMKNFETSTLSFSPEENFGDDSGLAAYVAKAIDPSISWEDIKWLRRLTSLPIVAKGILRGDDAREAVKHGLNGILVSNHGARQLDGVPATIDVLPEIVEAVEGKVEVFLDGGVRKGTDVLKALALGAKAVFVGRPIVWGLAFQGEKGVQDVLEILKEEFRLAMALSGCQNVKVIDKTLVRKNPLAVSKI
# UniProt Q9UII2: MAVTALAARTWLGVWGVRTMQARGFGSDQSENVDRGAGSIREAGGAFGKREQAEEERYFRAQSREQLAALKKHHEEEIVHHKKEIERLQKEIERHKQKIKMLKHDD
# UniProt Q9UBC2: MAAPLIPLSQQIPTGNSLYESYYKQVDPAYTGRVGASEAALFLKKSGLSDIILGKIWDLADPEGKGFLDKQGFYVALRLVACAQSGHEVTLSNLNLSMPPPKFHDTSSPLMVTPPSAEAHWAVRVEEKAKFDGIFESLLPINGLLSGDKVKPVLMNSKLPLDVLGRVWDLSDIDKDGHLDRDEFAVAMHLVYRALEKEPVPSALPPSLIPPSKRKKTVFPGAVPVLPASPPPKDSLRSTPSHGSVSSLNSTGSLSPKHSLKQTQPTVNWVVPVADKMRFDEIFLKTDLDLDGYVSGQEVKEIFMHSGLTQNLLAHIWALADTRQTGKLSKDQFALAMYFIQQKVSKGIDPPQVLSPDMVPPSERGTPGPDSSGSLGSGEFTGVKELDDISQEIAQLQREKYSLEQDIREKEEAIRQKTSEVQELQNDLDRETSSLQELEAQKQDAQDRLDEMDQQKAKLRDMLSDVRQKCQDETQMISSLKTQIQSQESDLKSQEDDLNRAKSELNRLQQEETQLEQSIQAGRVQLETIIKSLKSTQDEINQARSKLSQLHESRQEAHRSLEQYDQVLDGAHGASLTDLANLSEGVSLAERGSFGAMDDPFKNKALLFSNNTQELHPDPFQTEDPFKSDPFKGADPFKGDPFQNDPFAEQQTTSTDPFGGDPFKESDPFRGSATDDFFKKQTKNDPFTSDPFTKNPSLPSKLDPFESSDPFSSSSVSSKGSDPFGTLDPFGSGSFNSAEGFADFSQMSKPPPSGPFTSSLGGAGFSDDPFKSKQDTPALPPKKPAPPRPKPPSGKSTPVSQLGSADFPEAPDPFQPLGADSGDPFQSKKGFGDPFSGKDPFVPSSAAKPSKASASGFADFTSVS
# The list shows a part of the results. Most entries show no effect beyond the scatter of the controls.
# Compound: CN[C@@H]1C[C@H]2O[C@@](C)([C@@H]1OC)n1c3ccccc3c3c4c(c5c6ccccc6n2c5c31)C(=O)NC4 [staurosporine]
# Experiment: log2 fold change of tryptic peptide abundance, ligand vs vehicle (limited proteolysis) (log2 ratio); higher = more trypsin-susceptible (destabilized)
# Settings: ligand concentration: 20 uM; sample: K562 cleared lysate; digestion: 4 min, 22 C (HT-PELSA RT4min, Orbitrap Astral)
row,Target,log2 fold change
1,"DNAJB4 (peptide sequence: IIGYGLPFPK, peptide start residue: 293) (UniProt Q9UDY4)",0.302
2,"UniProt Q9UIF7 (peptide sequence: SQVSSPCSR, peptide start residue: 508)",-0.0165
3,"UniProt Q9UK96 (peptide sequence: GITVAQSSQPTR, peptide start residue: 759)",0.642
4,"DIP2B (peptide sequence: AQLAELELELSEGDITQK, peptide start residue: 22) (UniProt Q9P265)",-0.32
5,"GDE1 (peptide sequence: EAVAECLNHNLTIFFDVKGHAHK, peptide start residue: 159) (UniProt Q9NZC3)",-0.149
6,"SMARCAL1 (peptide sequence: IGQTSSVGIHYLVAK, peptide start residue: 821) (UniProt Q9NZC9)",-0.331
7,"UniProt Q9UJL9 (peptide sequence: VALWEDVTK, peptide start residue: 29)",-0.199
8,"CHORDC1 (peptide sequence: KVVPCRHDWHQTGGEVTISVYAK, peptide start residue: 226) (UniProt Q9UHD1)",-0.328
9,"SHPK (peptide sequence: DTHLTITPTVLGER, peptide start residue: 363) (UniProt Q9UHJ6)",0.288
10,"UniProt Q9P2K6 (peptide sequence: LVLDFINAGGAR, peptide start residue: 64)",0.23
11,"MKRN1 (peptide sequence: NHFWELIEER, peptide start residue: 417) (UniProt Q9UHC7)",-0.419
12,"UniProt Q9UHC1 (peptide sequence: SDLVLPFLPR, peptide start residue: 1104)",0.176
13,"DBR1 (peptide sequence: ATDDLINVTGR, peptide start residue: 291) (UniProt Q9UK59)",-1.04
14,"LIMD1 (peptide sequence: TPSVSAPLALSCPR, peptide start residue: 294) (UniProt Q9UGP4)",-0.371
15,"UniProt Q9UI47 (peptide sequence: NLMNAVVQTVK, peptide start residue: 824)",-0.00591
16,"RAI14 (peptide sequence: AAMTDAMVPR, peptide start residue: 777) (UniProt Q9P0K7)",0.393
17,"ZMAT5 (peptide sequence: KVWYDMFR, peptide start residue: 35) (UniProt Q9UDW3)",0.186
18,"BCCIP (peptide sequence: TFVEAGKNNSK, peptide start residue: 225) (UniProt Q9P287)",0.223
19,"DNMT3B (peptide sequence: IFGFPVHYTDVSNMGR, peptide start residue: 808) (UniProt Q9UBC3)",0.238
20,"UniProt Q9UJM8 (peptide sequence: ALALGAK, peptide start residue: 289)",-0.0407
21,"ANAPC5 (peptide sequence: TVEDADMELTSRDEGERK, peptide start residue: 169) (UniProt Q9UJX4)",0.506
22,"TUBGCP4 (peptide sequence: VEILPSYIPVR, peptide start residue: 261) (UniProt Q9UGJ1)",0.111
23,"UniProt Q9UII2 (peptide sequence: EQAEEER, peptide start residue: 51)",-0.151
24,"SPG21 (peptide sequence: GSLGISQEEQ, peptide start residue: 299) (UniProt Q9NZD8)",-0.216
25,"HACL1 (peptide sequence: FSARPSSIEAIPFVIEK, peptide start residue: 137) (UniProt Q9UJ83)",-0.145
26,"EPS15L1 (peptide sequence: LSQLHESR, peptide start residue: 547) (UniProt Q9UBC2)",0.428
27,"C19orf25 (peptide sequence: MMEDAEAPGEQLYQQSR, peptide start residue: 51) (UniProt Q9UFG5)",-0.229
28,"VPS29 (peptide sequence: LVLVLGDLHIPHR, peptide start residue: 2) (UniProt Q9UBQ0)",-0.489

# Reprinted at random: two records from the list, in no set order.
row,Target,log2 fold change
23,"UniProt Q9UII2 (peptide sequence: EQAEEER, peptide start residue: 51)",-0.151
5,"GDE1 (peptide sequence: EAVAECLNHNLTIFFDVKGHAHK, peptide start residue: 159) (UniProt Q9NZC3)",-0.149
